Results are given in words; binding and its absence hold for the method and conditions named. For some assays here: In cells and extracts the contact can be indirect. Some results given as binding are weak or reduced against the parent protein; the word gives no strength. Where a sequence is shown, tags or fusion partners need not be part of it.

Protein sequences, listed by entry. Tags and fused reporters are not part of them. Lines headed by an entry give the natural chain unless they say otherwise; changes in a name come on top.
UniProt P53131: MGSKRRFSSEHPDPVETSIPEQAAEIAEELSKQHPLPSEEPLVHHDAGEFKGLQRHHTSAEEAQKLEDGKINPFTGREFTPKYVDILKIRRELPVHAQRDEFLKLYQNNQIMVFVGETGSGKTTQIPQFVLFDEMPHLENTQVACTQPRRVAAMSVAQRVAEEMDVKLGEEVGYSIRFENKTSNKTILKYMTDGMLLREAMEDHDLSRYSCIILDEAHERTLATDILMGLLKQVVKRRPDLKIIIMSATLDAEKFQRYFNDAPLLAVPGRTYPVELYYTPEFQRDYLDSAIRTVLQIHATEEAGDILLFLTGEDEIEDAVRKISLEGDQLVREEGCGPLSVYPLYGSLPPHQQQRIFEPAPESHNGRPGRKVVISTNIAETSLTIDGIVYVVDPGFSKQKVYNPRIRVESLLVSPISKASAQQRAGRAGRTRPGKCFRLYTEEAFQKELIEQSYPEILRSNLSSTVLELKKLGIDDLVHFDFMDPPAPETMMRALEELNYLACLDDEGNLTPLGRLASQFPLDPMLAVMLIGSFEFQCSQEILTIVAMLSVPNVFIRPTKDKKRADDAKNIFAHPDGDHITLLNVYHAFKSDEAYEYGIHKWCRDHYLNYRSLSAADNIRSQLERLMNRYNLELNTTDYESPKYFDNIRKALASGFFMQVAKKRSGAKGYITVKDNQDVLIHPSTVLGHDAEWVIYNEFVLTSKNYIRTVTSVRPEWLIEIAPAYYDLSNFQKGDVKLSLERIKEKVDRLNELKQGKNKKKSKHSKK

Consider 4 molecules from PMC4066782, “The telomerase inhibitor Gno1p/PINX1 activates the helicase Prp43p during ribosome biogenesis” (Nucleic Acids Research, 2014).

For experiment [1], the target named is T1, PINX1-HA (human) (UniProt Q96BK5).
T1 sequence: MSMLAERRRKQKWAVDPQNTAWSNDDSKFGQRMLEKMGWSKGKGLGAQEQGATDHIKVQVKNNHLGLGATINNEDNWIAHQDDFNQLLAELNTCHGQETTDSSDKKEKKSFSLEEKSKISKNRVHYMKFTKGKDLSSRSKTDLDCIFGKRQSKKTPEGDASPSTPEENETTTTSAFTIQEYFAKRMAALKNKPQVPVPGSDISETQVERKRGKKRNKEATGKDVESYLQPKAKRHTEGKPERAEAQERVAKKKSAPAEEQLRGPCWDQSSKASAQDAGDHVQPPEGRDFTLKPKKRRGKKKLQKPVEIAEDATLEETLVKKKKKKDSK
Nature of the experiment: co-IP; anti-HA affinity gel precipitates the HA-tagged protein from yeast extracts; Prp43p detected by western blot. In general terms: A western blot detects proteins with antibodies after separation by electrophoresis.

The target in experiment [2] is T2, Gno1p-HA (plasmid pFH170) (S. cerevisiae) (UniProt P53335).
T2 sequence: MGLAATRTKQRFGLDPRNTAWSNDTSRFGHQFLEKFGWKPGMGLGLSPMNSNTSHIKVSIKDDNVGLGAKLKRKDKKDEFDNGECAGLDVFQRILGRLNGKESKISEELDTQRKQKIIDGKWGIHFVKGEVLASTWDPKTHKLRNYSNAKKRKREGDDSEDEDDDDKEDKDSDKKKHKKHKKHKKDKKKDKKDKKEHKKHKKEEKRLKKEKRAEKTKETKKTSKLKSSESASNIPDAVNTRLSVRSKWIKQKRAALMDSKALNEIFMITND
The experiment is described as above.

Experiment [3] has as its target Prp43p-TAP (S. cerevisiae) (UniProt P53131). Nature of the experiment: co-IP; IgG sepharose beads precipitate the TAP- or ZZ-tagged protein from total yeast extracts; HA-tagged protein detected by western with anti-HA antibodies.
Experiment [4] has as its target Prp43p-HIS (S. cerevisiae, UniProt P53131 1-767). Kind of experiment: pull-down; 2 μg of each purified recombinant protein mixed in 500-μl IP buffer (25-mM Tris-HCl pH 8.0, 300-mM KCl, 5-mM MgCl2, 10% glycerol, 0.1% NP-40, 0.5-mM DTT), pre-cleared, then precipitated with protein A/protein G Sepharose beads coated with anti-Prp43p antibodies, 2 h at 4°C; western with anti-His; both purified.

In the case of “Prp43p (in extracts of Δgno1 cells expressing HA-tagged proteins) (from UniProt P53131 1-767) (enzyme)”, the binding result in experiment [1] and in experiment [2] was “binds” in each case.

B1: Gno1p-HA (plasmid pFH170) (protein, UniProt P53335 1-271)
chain: MGLAATRTKQRFGLDPRNTAWSNDTSRFGHQFLEKFGWKPGMGLGLSPMNSNTSHIKVSIKDDNVGLGAKLKRKDKKDEFDNGECAGLDVFQRILGRLNGKESKISEELDTQRKQKIIDGKWGIHFVKGEVLASTWDPKTHKLRNYSNAKKRKREGDDSEDEDDDDKEDKDSDKKKHKKHKKHKKDKKKDKKDKKEHKKHKKEEKRLKKEKRAEKTKETKKTSKLKSSESASNIPDAVNTRLSVRSKWIKQKRAALMDSKALNEIFMITND
For the molecule B1, the binding entry in experiment [3] is listed as “binds”.

B2: GST-PINX1-HIS (natural protein, human, UniProt Q96BK5 1-328, looked up)
chain: MSMLAERRRKQKWAVDPQNTAWSNDDSKFGQRMLEKMGWSKGKGLGAQEQGATDHIKVQVKNNHLGLGATINNEDNWIAHQDDFNQLLAELNTCHGQETTDSSDKKEKKSFSLEEKSKISKNRVHYMKFTKGKDLSSRSKTDLDCIFGKRQSKKTPEGDASPSTPEENETTTTSAFTIQEYFAKRMAALKNKPQVPVPGSDISETQVERKRGKKRNKEATGKDVESYLQPKAKRHTEGKPERAEAQERVAKKKSAPAEEQLRGPCWDQSSKASAQDAGDHVQPPEGRDFTLKPKKRRGKKKLQKPVEIAEDATLEETLVKKKKKKDSK
With B2, the binding result in experiment [3] was “binds”.

B3: GST-PINX1Gm-HIS (protein, UniProt Q96BK5 1-328)
chain: MSMLAERRRKQKWAVDPQNTAWSNDDSKFGQRMAEKMEWSKEKEAEAQEQGATDHIKVQVKNNHLGLGATINNEDNWIAHQDDFNQLLAELNTCHGQETTDSSDKKEKKSFSLEEKSKISKNRVHYMKFTKGKDLSSRSKTDLDCIFGKRQSKKTPEGDASPSTPEENETTTTSAFTIQEYFAKRMAALKNKPQVPVPGSDISETQVERKRGKKRNKEATGKDVESYLQPKAKRHTEGKPERAEAQERVAKKKSAPAEEQLRGPCWDQSSKASAQDAGDHVQPPEGRDFTLKPKKRRGKKKLQKPVEIAEDATLEETLVKKKKKKDSK
Turning to B3, the binding result in experiment [4] is “no binding (tested: 2 μg of each protein in 500 μl)”.
